Paper PMC4644379
Results are given in words; binding and its absence hold for the method and conditions named.

Protein sequences, listed by entry. Tags and fused reporters are not part of them.
UniProt P26718: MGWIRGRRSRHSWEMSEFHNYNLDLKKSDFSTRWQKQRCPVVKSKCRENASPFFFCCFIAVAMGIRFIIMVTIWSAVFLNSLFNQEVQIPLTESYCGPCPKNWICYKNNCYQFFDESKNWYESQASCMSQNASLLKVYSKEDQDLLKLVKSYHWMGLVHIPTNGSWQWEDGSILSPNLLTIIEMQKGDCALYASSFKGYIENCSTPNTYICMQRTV

Biological target: NKG2D on human NK cells (human (endogenous in NK cells and CD8+ T cells from PBMC)) (UniProt P26718)
Assay: flow cytometry on cells; MICA-129Met-Fc, MICA-129Val-Fc or OVA-Fc at several concentrations on human NK cells; FITC goat anti-mouse IgG; 4°C; only the binder purified

- binding: no binding
Substance: OVA-mIgG2a-Fc fusion protein (from UniProt P01012 1-386)
